Measured values: PMC8262776

Key:
Test in all cases: EMSA
[1] = target: Glu1-YqhC (Escherichia coli MG1655 evolved strain Glu1) (UniProt Q46855); settings: EMSA: 50 mM NaCl, 20 mM Tris-Cl (pH not stated), 1 mM DTT, 10% glycerol; 45 min on ice; native 4-16% gel in TBE at 4 C; recombinant protein; protein details: C-terminal His tag (pET29b+); label: none (SYBR Green gel stain)
[2] = target: T1, YqhC wild-type (parent) (Escherichia coli MG1655) (UniProt Q46855); settings: parent YqhC 5-115 ng/uL; EMSA: 50 mM NaCl, 20 mM Tris-Cl (pH not stated), 1 mM DTT, 10% glycerol; 45 min on ice; native 4-16% gel in TBE at 4 C; recombinant protein; residues 1-318; protein details: C-terminal His tag (pET29b+); label: none (SYBR Green gel stain)
T1 sequence (looked up): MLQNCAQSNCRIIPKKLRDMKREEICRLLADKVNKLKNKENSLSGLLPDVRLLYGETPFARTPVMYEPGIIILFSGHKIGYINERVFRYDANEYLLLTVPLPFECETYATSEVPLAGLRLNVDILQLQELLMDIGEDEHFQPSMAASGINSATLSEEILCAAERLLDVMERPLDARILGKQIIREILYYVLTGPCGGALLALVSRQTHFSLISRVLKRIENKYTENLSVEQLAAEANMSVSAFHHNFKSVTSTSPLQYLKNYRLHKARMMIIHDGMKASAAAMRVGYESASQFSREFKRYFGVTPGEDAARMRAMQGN

[3] = target: Glu2-YqhC (Escherichia coli MG1655 evolved strain Glu2) (UniProt Q46855); settings: EMSA: 50 mM NaCl, 20 mM Tris-Cl (pH not stated), 1 mM DTT, 10% glycerol; 45 min on ice; native 4-16% gel in TBE at 4 C; recombinant protein; protein details: C-terminal His tag (pET29b+); label: none (SYBR Green gel stain)
[4] = target: Glu3-YqhC (Escherichia coli MG1655 evolved strain Glu3) (UniProt Q46855); settings: EMSA: 50 mM NaCl, 20 mM Tris-Cl (pH not stated), 1 mM DTT, 10% glycerol; 45 min on ice; native 4-16% gel in TBE at 4 C; recombinant protein; protein details: C-terminal His tag (pET29b+); label: none (SYBR Green gel stain)

Measured: binding result

CGCCGTAGGTAATCAATACGCGAGCATCGTGAGGAATTTGTTCGCGTAAACCAGCGATTGCGCCTTTACCAAACAGAATGCGGGTTGGGGTGTGCAGATTAAAGTTGTTCATTACTTGCTCCCTTTGCTGGGCCAATATG (double strand) [Negative ctrl probe]
no binding: all assays above

For at least one entry, the source does not settle the construct or the ends of the probe. A negative result means that nothing was seen under these conditions. For some of these results: Where a protein sequence is shown, tags need not be part of it.
